Measurements as given in PubChem BioAssay AID248 (DTP/NCI, 2004).
The list is a part of this screen's results and no random one: it gathers tests that were run many times, whatever their T/C, doses with no T/C, and many T/C values between a quarter and a half above the control. Other doses and runs of a compound stand elsewhere. T/C gives the treated animals as a percentage of the vehicle group. Some doses have a count of surviving animals in place of a T/C: the source holds a T/C of zero for them, seemingly a mark for toxic or unscored doses. Some survivor counts are full or nearly so, which does not show that the dose was tolerated: survival well below the control is almost never listed, so the zero probably covers shortened survival too. Counts of survivors are from the toxicity check (mostly the fifth day) where no day follows; animals may have died later. Schedule codes are those of the source, read here as Q, the interval in days (D) or hours (H), X, the number of doses. Some schedules carry Z or #; the key to these is not given. For survival time, this PubChem deposit counts one and a half times the control or more as active, and values a quarter to a half above the control carry no call in these data; other NCI protocols may use other cut-offs. Some T/C values carry the count of animals alive at the toxicity check (mostly the fifth day); where none is given, no animal had died by that day.

Test system: L1210 leukemia ip in BDF1 mice, survival T/C
Test: NCI In Vivo Anticancer Drug Screen. Data for tumor model L1210 Leukemia (intraperitoneal) in B6D2F1 (BDF1) mice
Conditions: T/C endpoint: mean survival time, higher T/C = longer survival
[1] = dose: 100.0 mg/kg/injection, schedule: Q01DX009 (ip), vehicle: saline with Tween-80
[2] = dose: 200.0 mg/kg/injection, schedule: Q01DX009 (ip), vehicle: saline with Tween-80
[3] = dose: 300.0 mg/kg/injection, schedule: Q01DX001 (ip), vehicle: saline
[4] = dose: 120.0 mg/kg/injection, schedule: Q01DX Z (ip), vehicle: carboxymethylcellulose (CMC)
[5] = dose: 400.0 mg/kg/injection, schedule: Q01DX009 (ip), vehicle: saline with Tween-80
[6] = dose: 400.0 mg/kg/injection, schedule: Q01DX001 (ip), vehicle: saline
[7] = dose: 200.0 mg/kg/injection, schedule: Q04DX003 (ip), vehicle: saline with Tween-80
[8] = dose: 400.0 mg/kg/injection, schedule: Q04DX003 (ip), vehicle: saline with Tween-80
[9] = dose: 25.0 mg/kg/injection, schedule: Q04DX003 (ip), vehicle: saline with Tween-80
[10] = dose: 200.0 mg/kg/injection, schedule: Q04DX003 (ip), vehicle: saline
[11] = dose: 400.0 mg/kg/injection, schedule: Q04DX003 (ip), vehicle: saline

SMILES: COc1ccc(OC)c(/C=C/c2cc3ccccc3c[n+]2C)c1
- survivor count (dose: 50.0 mg/kg/injection, schedule: Q01DX009 (ip), vehicle: saline with Tween-80): 0 of 3
- survivor count [1]: 0 of 3
- survivor count [2]: 0 of 3

SMILES: O=C(NC1CSSC1)C(Cc1ccccc1)N1C(=O)c2ccccc2C1=O (stereo not given)
- survivor count (dose: 25.0 mg/kg/injection, schedule: Q01DX009 (ip), vehicle: water): 2 of 6

SMILES: CCCCSP(=O)(c1ccccc1)N1CCCCC1 (stereo not given)
- survivor count (dose: 200.0 mg/kg/injection, schedule: Q04DX002 (ip), vehicle: saline with Tween-80): 0 of 3
- survivor count (dose: 400.0 mg/kg/injection, schedule: Q04DX002 (ip), vehicle: saline with Tween-80): 0 of 3

SMILES: O=C1C=CC(=O)c2[nH]c(-c3ccccc3)cc21
- survivor count (dose: 50.0 mg/kg/injection, schedule: Q04DX002 (ip), vehicle: Klucel (hydroxypropylcellulose) (HPC)): 0 of 3

SMILES: C[n+]1ccc(N2CCCCC2)c2ccc(Cl)cc21
- survivor count (dose: 4.0 mg/kg/injection, schedule: Q01DX001 (ip), vehicle: saline): 0 of 6
- survivor count (dose: 8.0 mg/kg/injection, schedule: Q01DX001 (ip), vehicle: saline): 0 of 6
- survivor count (dose: 10.0 mg/kg/injection, schedule: Q01DX001 (ip), vehicle: saline): 0 of 6
- survivor count (dose: 20.0 mg/kg/injection, schedule: Q01DX001 (ip), vehicle: saline): 2 of 6
- survivor count (dose: 40.0 mg/kg/injection, schedule: Q01DX001 (ip), vehicle: saline): 0 of 6
- survivor count (dose: 75.0 mg/kg/injection, schedule: Q01DX001 (ip), vehicle: saline): 0 of 6
- survivor count (dose: 150.0 mg/kg/injection, schedule: Q01DX001 (ip), vehicle: saline): 0 of 6
- survivor count [3]: 0 of 6

SMILES: C=CC[Se]c1ncnc2c1ncn2C1OC(CO)C(O)C1O (stereo not given)
- survivor count (dose: 100.0 mg/kg/injection, schedule: Q01DX005 (ip), vehicle: saline): 1 of 6
- survivor count (dose: 200.0 mg/kg/injection, schedule: Q01DX005 (ip), vehicle: saline): 0 of 6
- survivor count (dose: 200.0 mg/kg/injection, schedule: Q01DX009 (ip), vehicle: saline): 3 of 6

SMILES: c1ccc([B-](c2ccccc2)([C+]2CCCCC2)N2CCCCC2)cc1
- survivor count (dose: 300.0 mg/kg/injection, schedule: Q01DX001 (ip), vehicle: carboxymethylcellulose (CMC)): 3 of 6

SMILES: COc1cc(/C=N/N=C(N)N)cc(I)c1O
- survivor count [4]: 1 of 6
- T/C (dose: 240.0 mg/kg/injection, schedule: Q01DX Z (oral), vehicle: carboxymethylcellulose (CMC)): 125 % of control

SMILES: CCOC(=O)CNCc1cccc(Cl)c1
- survivor count (dose: 400.0 mg/kg/injection, schedule: Q01DX009 (ip), vehicle: saline): 5 of 6

SMILES: Clc1ccc(C#Cc2ccc(Cl)cc2)cc1
- survivor count (dose: 25.0 mg/kg/injection, schedule: Q01DX009 (ip), vehicle: saline with Tween-80): 3 of 6
- survivor count [1]: 2 of 6
- survivor count [2]: 0 of 6
- survivor count [5]: 0 of 6

SMILES: NC(C(=O)O)c1ccc(F)cc1 (stereo not given)
- survivor count [6]: 0 of 4

SMILES: CCOC(=O)CC/C(=C/c1ccccc1)[N+](=O)[O-]
- survivor count [7]: 2 of 6
- survivor count [8]: 0 of 3

SMILES: C/C(=N\N=C(N)N)c1cccc(NC(=S)Nc2cccc(/C(C)=N/N=C(N)N)c2)c1
- survivor count (dose: 40.0 mg/kg/injection, schedule: Q01DX005 (ip), vehicle: saline with Tween-80): 2 of 6
- survivor count (dose: 80.0 mg/kg/injection, schedule: Q01DX005 (ip), vehicle: saline with Tween-80): 0 of 6
- survivor count (dose: 160.0 mg/kg/injection, schedule: Q01DX005 (ip), vehicle: saline with Tween-80): 0 of 6
- survivor count (dose: 320.0 mg/kg/injection, schedule: Q01DX005 (ip), vehicle: saline with Tween-80): 0 of 6

SMILES: O=C1OC(/C=C/c2ccccc2)=NC/1=C\c1cc(Br)ccc1O
- survivor count (dose: 100.0 mg/kg/injection, schedule: Q04DX002 (ip), vehicle: saline with Tween-80): 3 of 3

SMILES: CC(C)=C1C2C=CC1C1C(=O)OC(=O)C21 (stereo not given)
- survivor count (dose: 100.0 mg/kg/injection, schedule: Q01DX009 (ip), vehicle: Klucel (hydroxypropylcellulose) (HPC)): 6 of 6
- survivor count (dose: 200.0 mg/kg/injection, schedule: Q01DX001 (ip), vehicle: Klucel (hydroxypropylcellulose) (HPC)): 3 of 6
- survivor count (dose: 400.0 mg/kg/injection, schedule: Q01DX001 (ip), vehicle: Klucel (hydroxypropylcellulose) (HPC)): 0 of 6

SMILES: O=S(=O)(O)Sc1ncnc2nc[nH]c12
- survivor count (dose: 500.0 mg/kg/injection, schedule: Q01DX001 (ip), vehicle: water): 1 of 6
- survivor count (dose: 500.0 mg/kg/injection, schedule: Q01DX009 (ip), vehicle: water): 0 of 6
- survivor count (dose: 500.0 mg/kg/injection, schedule: Q04DX003 (ip), vehicle: water): 2 of 6
- survivor count (dose: 1000.0 mg/kg/injection, schedule: Q01DX001 (ip), vehicle: water): 2 of 6
- survivor count (dose: 1000.0 mg/kg/injection, schedule: Q04DX003 (ip), vehicle: water): 0 of 6
- survivor count (dose: 2000.0 mg/kg/injection, schedule: Q01DX001 (ip), vehicle: water): 0 of 6

SMILES: CCCCCCP(=O)(CCCCCC)CCCCCC (tested in a mixture with another compound)
- survivor count [5]: 0 of 6

SMILES: CC(=O)NC1=C(NC(C)C)C(=O)c2ccccc2C1=O
- survivor count [9]: 3 of 6
- survivor count (dose: 50.0 mg/kg/injection, schedule: Q04DX003 (ip), vehicle: saline with Tween-80): 2 of 6

SMILES: NC(=O)Cc1ccc(O)cc1
- T/C (dose: 100.0 mg/kg/injection, schedule: Q04DX002 (ip), vehicle: saline): 139 % of control

SMILES: CCC(CCl)NC1CCCCC1 (stereo not given)
- survivor count [3]: 1 of 6

SMILES: CCn1cc(C(=O)O)c(=O)c2cc(OC)c3ccccc3c21
- survivor count (dose: 200.0 mg/kg/injection, schedule: Q04DX002 (ip), vehicle: Klucel (hydroxypropylcellulose) (HPC)): 2 of 3

SMILES: CCCCCCCCCCCCCCCCNC(=S)N/N=C(/C=C/c1ccccc1)C(=O)O
- survivor count [4]: 0 of 6

SMILES: CNC(=O)C1NCCc2cc(OC)c(OC)cc21 (stereo not given)
- survivor count (dose: 100.0 mg/kg/injection, schedule: Q01DX001 (ip), vehicle: saline): 4 of 4
- survivor count (dose: 200.0 mg/kg/injection, schedule: Q01DX001 (ip), vehicle: saline): 4 of 4
- survivor count [6]: 2 of 4

SMILES: CCCCC(CC)C1NCCO1 (stereo not given)
- survivor count [8]: 4 of 6

SMILES: CCCCCC(C)NC(=O)N(CCCl)N=O (stereo not given) (tested in a mixture with another compound)
- survivor count (dose: 200.0 mg/kg/injection, schedule: Q01DX001 (ip), vehicle: saline with Tween-80): 10 of 10

SMILES: CCCCCCCCC/C=C(\CCCCCCCCCC)c1cc(C)ccc1C
- survivor count (dose: 25.0 mg/kg/injection, schedule: Q04DX002 (ip), vehicle: saline with Tween-80): 3 of 3
- survivor count (dose: 50.0 mg/kg/injection, schedule: Q04DX002 (ip), vehicle: saline with Tween-80): 3 of 3

SMILES: Nc1nc(SCC(=O)c2ccccc2)c2[nH]cnc2n1
- T/C [1]: 141 % of control
- T/C [5]: 127 % of control [5 of 6 alive]

SMILES: CCCCOc1ccc(NC(=O)CCl)cc1
- survivor count [7]: 4 of 6
- survivor count [8]: 0 of 6

SMILES: NCCc1cnc2ccccc2n1
- survivor count [10]: 1 of 6
- survivor count [11]: 0 of 6

SMILES: CCCCNC(C)C(=O)c1ccccc1 (stereo not given)
- survivor count (dose: 100.0 mg/kg/injection, schedule: Q01DX009 (ip), vehicle: saline): 1 of 6
- survivor count [10]: 0 of 6
- survivor count [11]: 0 of 6

SMILES: O=C(CC(=Nc1ccccc1)c1ccccc1)c1ccccc1.O=C(CC(=Nc1ccccc1)c1ccccc1)c1ccccc1.[Cu]
- survivor count [9]: 6 of 6
- survivor count (dose: 100.0 mg/kg/injection, schedule: Q04DX003 (ip), vehicle: saline with Tween-80): 6 of 6
- survivor count [7]: 0 of 6
- survivor count [8]: 0 of 6
